PubChem BioAssay AID686938 – Drosophila RNAi Screening Center, 2013

- Assay: 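Fly genes required for calcium entry once internal stores are emptied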 (primary screen)
- System: Drosophila S2R+ cells
- Reagents: long dsRNA against Drosophila genes, about 0.25 µg dsRNA per well, roughly 10,000 cells
- Timing: 5 days of knock-down before the calcium assay
- Challenge: thapsigargin (SERCA pump blocker) to empty calcium stores; entry signal taken 4 min after adding it
- Read-out: 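Per-well fluo-4 fluorescence in two replicates, unnormalised, measured in resting cells and 4 min after store depletion by the SERCA blocker thapsigargin; ratio of the two present in few wells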
- Direction: calcium entry signal: higher = stronger calcium signal after store depletion; entry to resting ratio: higher = more calcium entry relative to resting level; resting calcium signal: higher = higher resting calcium signal
- Rule for the call: 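Called when the plate z-score of the entry-to-rest ratio, mean of duplicates, falls below −3; wells with low overall dye signal (Fmax z below −2) or more than five off-targets excluded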
- Calls: active = strongly reduced calcium entry; inactive = no strong reduction
The screen tested about 23,000 reagents; shown is an unselected part of those that have a named target and a result. Over the whole deposit, 75 (0.33%) are marked active. 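Raw plate signals without normalisation; calls rest on plate z-scores that were not deposited; ratio present for only 364 wells.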 The numbers tell different reagents against one gene apart. Names joined by + are all predicted targets of the reagent. Reagent sequences are not shown. Not given: the dose of the treatment.

| Target gene | dsRNA no. | calcium entry signal, replicate 1 (fluorescence units) | calcium entry signal, replicate 2 (fluorescence units) | entry to resting ratio | resting calcium signal, replicate 1 (fluorescence units) | resting calcium signal, replicate 2 (fluorescence units) | Call |
| --- | --- | --- | --- | --- | --- | --- | --- |
| GLS | 1 | 3.69e7 | 4.02e7 | – | 1.68e7 | 1.92e7 | inactive |
| OS9 + Hf | 1 | 4.94e7 | – | – | 2.45e7 | – | inactive |
| alpha-Est10 | 1 | 3.82e7 | 3.26e7 | – | 1.78e7 | 1.57e7 | inactive |
| CG12375 | 1 | 4.39e7 | – | – | 2.21e7 | – | inactive |
| Ufsp1 | 1 | 1.84e7 | 2.37e7 | – | 9.83e6 | 1.10e7 | inactive |
| CG43277 | 1 | 2.08e7 | 3.10e7 | – | 9.41e6 | 1.39e7 | inactive |
| CRAT | 1 | 3.31e7 | 2.80e7 | – | 1.68e7 | 1.38e7 | inactive |
| Gbp1 | 1 | 4.39e7 | 4.21e7 | – | 1.87e7 | 1.86e7 | inactive |
| fd102C | 1 | 6.01e7 | 5.67e7 | 2.1 | 2.89e7 | 2.33e7 | inactive |
| ND-MLRQ | 1 | 3.32e7 | 3.61e7 | – | 1.62e7 | 1.67e7 | inactive |
| CG7912 | 1 | 4.17e7 | 5.53e7 | – | 2.13e7 | 2.37e7 | inactive |
| CG43084 | 1 | 4.21e7 | 4.33e7 | – | 1.89e7 | 1.81e7 | inactive |
| CG15473 | 1 | 3.89e7 | 4.83e7 | – | 1.78e7 | 2.14e7 | inactive |
| CG32106 | 1 | 4.15e7 | 4.76e7 | – | 1.92e7 | 2.20e7 | inactive |
| asf1 | 1 | 2.00e7 | 2.74e7 | – | 1.08e7 | 2.15e7 | inactive |
| CG6048 | 1 | 2.48e7 | 3.93e7 | – | 1.27e7 | 1.98e7 | inactive |
| CG5793 + Obp93a | 1 | 3.29e7 | 3.65e7 | – | 6.18e7 | 1.66e7 | inactive |
| CG30356 | 1 | 1.75e7 | 2.31e7 | – | 9.68e6 | 1.15e7 | inactive |
| CG17349 | 1 | 4.85e7 | 5.34e7 | – | 2.48e7 | 2.33e7 | inactive |
| CG43121 | 1 | 3.28e7 | 4.45e7 | – | 1.51e7 | 2.86e7 | inactive |
| CG15539 | 1 | 4.20e7 | 4.43e7 | – | 2.04e7 | 1.91e7 | inactive |
| Scgbeta | 1 | 4.00e7 | 4.11e7 | – | 1.92e7 | 2.00e7 | inactive |
| Ski6 | 1 | 4.32e7 | 3.40e7 | – | 2.02e7 | 1.59e7 | inactive |
| mthl15 | 1 | 3.72e7 | 4.99e7 | – | 1.86e7 | 2.27e7 | inactive |

The list goes on, starting with the last 5 of the part before.
| Target gene | dsRNA no. | calcium entry signal, replicate 1 (fluorescence units) | calcium entry signal, replicate 2 (fluorescence units) | entry to resting ratio | resting calcium signal, replicate 1 (fluorescence units) | resting calcium signal, replicate 2 (fluorescence units) | Call |
| --- | --- | --- | --- | --- | --- | --- | --- |
| CG43121 | 1 | 3.28e7 | 4.45e7 | – | 1.51e7 | 2.86e7 | inactive |
| CG15539 | 1 | 4.20e7 | 4.43e7 | – | 2.04e7 | 1.91e7 | inactive |
| Scgbeta | 1 | 4.00e7 | 4.11e7 | – | 1.92e7 | 2.00e7 | inactive |
| Ski6 | 1 | 4.32e7 | 3.40e7 | – | 2.02e7 | 1.59e7 | inactive |
| mthl15 | 1 | 3.72e7 | 4.99e7 | – | 1.86e7 | 2.27e7 | inactive |
| LysB | 1 | 3.18e7 | 2.89e7 | – | 1.54e7 | 1.45e7 | inactive |
| Hil | 1 | 4.39e7 | 3.75e7 | – | 2.00e7 | 1.84e7 | inactive |
| Hil | 2 | 1.70e7 | 3.00e7 | – | 9.43e6 | 1.27e7 | inactive |
| Gs2 | 1 | 2.93e7 | 3.57e7 | – | 1.41e7 | 1.58e7 | inactive |
| CG43755 | 1 | 3.29e7 | 3.12e7 | – | 1.59e7 | 1.47e7 | inactive |
| CG15579 | 1 | 3.18e7 | 4.74e7 | – | 1.60e7 | 2.03e7 | inactive |
| asRNA:CR42547 + CG15674 | 1 | 4.50e7 | 4.99e7 | – | 2.25e7 | 2.12e7 | inactive |
| CG14180 (retired record) | 1 | 1.66e7 | 2.26e7 | – | 1.11e7 | 1.42e7 | inactive |
| Decay | 1 | 3.27e7 | 5.10e7 | – | 1.69e7 | 5.91e7 | inactive |
| CG32801 | 1 | 4.88e7 | 6.05e7 | 2.1 | 2.36e7 | 2.42e7 | inactive |
| sturkopf | 1 | 2.95e7 | 2.75e7 | – | 1.34e7 | 1.36e7 | inactive |
| CG34435 | 1 | 2.37e7 | 3.31e7 | – | 1.22e7 | 1.53e7 | inactive |
| CCT1 | 1 | 1.56e7 | 1.76e7 | – | 1.03e7 | 5.66e7 | inactive |
| CAH6 | 1 | 3.69e7 | 5.60e7 | – | 1.82e7 | 2.35e7 | inactive |
| metro | 1 | 2.44e7 | 2.51e7 | – | 1.11e7 | 1.26e7 | inactive |
| metro | 2 | 1.65e7 | 3.09e7 | – | 8.84e6 | 1.35e7 | inactive |
| CG13016 | 1 | 3.58e7 | 3.35e7 | – | 1.92e7 | 1.57e7 | inactive |
| CG14406 | 1 | 3.24e7 | 3.62e7 | – | 1.58e7 | 1.51e7 | inactive |
| Hacd1 | 1 | 5.56e7 | – | – | 2.69e7 | – | inactive |
| jv | 1 | 3.39e7 | 4.91e7 | – | 1.71e7 | 2.34e7 | inactive |
| jv | 2 | 2.85e7 | 5.26e7 | – | 1.50e7 | 2.26e7 | inactive |
| CG7330 | 1 | 3.73e7 | 5.13e7 | – | 1.78e7 | 1.93e7 | inactive |
| CG7330 | 2 | 3.33e7 | 5.87e7 | – | 1.73e7 | 1.98e7 | inactive |
| Acyp | 1 | 4.58e7 | 2.63e7 | – | 1.91e7 | 1.27e7 | inactive |
| Ptpa | 1 | 4.19e7 | – | – | 2.22e7 | – | inactive |
| CG4098 | 1 | 4.04e7 | 5.20e7 | – | 1.93e7 | 1.89e7 | inactive |
| BBS4 | 1 | 5.38e7 | 3.56e7 | – | 2.47e7 | 1.78e7 | inactive |
| sip3 | 1 | 4.67e7 | 4.61e7 | – | 1.85e7 | 1.96e7 | inactive |
| CG13454 | 1 | 3.62e7 | 3.42e7 | – | 1.90e7 | 1.73e7 | inactive |
| CG7546 | 1 | 4.29e7 | 4.47e7 | – | 2.44e7 | 2.02e7 | inactive |
| CG7546 | 2 | 4.65e7 | 3.14e7 | – | 3.08e7 | 1.73e7 | inactive |
| CG7546 | 3 | 2.58e7 | 3.18e7 | – | 1.28e7 | 1.71e7 | inactive |
| CG31464 | 1 | 4.62e7 | 3.66e7 | – | 2.06e7 | 1.74e7 | inactive |
| Tektin-C | 1 | 2.17e7 | 2.40e7 | – | 1.18e7 | 1.31e7 | inactive |
